Assay results: US20100331233A1, “CRYSTAL OF XPA AND ERCC1 COMPLEX AND USES THEREOF” (priority 2007, published 2010)
Results are given in words; binding and its absence hold for the method and conditions named. Some entries that bind do so weakly or less than the wild type.

Biological target: T1, ERCC1 (construct of the high throughput fluorescence polarization screen) (Homo sapiens (Human)) (UniProt P07992)
T1 sequence: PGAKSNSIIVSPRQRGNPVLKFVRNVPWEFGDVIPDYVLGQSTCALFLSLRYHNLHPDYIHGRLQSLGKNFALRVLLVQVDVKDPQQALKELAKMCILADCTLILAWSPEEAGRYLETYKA
Assay: fluorescence polarization binding assay used for small molecule screening

B1: XPA 14mer peptide labeled with 6-carboxyfluorescein (peptide)
peptide: KIIDTGGGFILEEE
modifications: labeled with 6-carboxyfluorescein (position not given)
Q: B1 was tested. Which binding did it give?
A: binds
